PMC12009912

Amino acid sequences for entries named in this document (tags omitted). A change or cut given only in a name is not applied to a line headed by its entry.
UniProt P06837: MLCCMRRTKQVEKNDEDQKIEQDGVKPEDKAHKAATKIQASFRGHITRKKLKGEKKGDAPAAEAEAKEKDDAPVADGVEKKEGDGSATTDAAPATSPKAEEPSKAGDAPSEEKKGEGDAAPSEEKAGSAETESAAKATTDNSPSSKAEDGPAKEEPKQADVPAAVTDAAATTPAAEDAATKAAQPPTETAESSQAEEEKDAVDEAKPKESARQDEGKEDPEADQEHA
UniProt P26641: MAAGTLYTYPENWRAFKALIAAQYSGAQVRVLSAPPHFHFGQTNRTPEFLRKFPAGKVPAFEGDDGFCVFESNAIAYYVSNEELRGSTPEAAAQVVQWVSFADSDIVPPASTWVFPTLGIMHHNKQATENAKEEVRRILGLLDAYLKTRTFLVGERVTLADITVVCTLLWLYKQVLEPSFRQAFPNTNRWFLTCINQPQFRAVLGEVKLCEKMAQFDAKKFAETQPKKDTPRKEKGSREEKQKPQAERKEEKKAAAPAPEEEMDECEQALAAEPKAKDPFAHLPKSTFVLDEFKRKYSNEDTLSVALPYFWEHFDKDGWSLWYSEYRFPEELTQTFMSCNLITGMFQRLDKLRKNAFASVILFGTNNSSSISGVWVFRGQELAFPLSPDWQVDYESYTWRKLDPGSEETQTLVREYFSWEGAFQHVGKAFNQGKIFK
UniProt P68104: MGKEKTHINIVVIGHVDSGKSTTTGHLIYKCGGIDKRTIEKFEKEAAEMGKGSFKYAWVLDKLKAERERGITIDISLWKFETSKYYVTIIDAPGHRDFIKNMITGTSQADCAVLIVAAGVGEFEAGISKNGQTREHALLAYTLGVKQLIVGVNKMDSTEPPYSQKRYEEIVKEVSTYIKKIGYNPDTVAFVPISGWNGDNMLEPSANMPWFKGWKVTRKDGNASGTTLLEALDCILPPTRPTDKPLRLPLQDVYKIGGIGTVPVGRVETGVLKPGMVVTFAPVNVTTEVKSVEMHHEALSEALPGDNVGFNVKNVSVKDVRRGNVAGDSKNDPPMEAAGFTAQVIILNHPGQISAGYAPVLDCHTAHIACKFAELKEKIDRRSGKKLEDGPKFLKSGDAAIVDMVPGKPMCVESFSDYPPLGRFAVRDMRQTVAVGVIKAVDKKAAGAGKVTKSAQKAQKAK
UniProt P06748: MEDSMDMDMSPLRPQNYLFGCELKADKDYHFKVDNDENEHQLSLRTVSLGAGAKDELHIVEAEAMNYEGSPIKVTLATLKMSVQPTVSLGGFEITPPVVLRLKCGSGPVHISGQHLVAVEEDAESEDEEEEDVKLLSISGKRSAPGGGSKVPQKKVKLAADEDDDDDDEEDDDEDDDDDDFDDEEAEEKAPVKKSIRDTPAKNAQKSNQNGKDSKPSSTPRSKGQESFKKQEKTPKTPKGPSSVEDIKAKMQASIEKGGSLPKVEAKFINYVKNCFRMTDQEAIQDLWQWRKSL

Key:
Assay in all cases: affinity purification with mass spectrometry; HeLa cells transiently transfected with GAP-43-GFP (WT, S86A,T172A or phosphomimetic double mutant) or GFP alone; lysis 24 h later in 1% Triton X-100, 10% glycerol, 10 mM Tris/Cl pH 7.5, 150 mM NaCl, 0.5 mM EDTA; GFP-Trap agarose beads, 2 h at 4°C; TMT-MS; N = 3 per condition
[1] = target: GAP-43 phosphoablative double mutant (S86A,T172A), GFP fusion (murine) (UniProt P06837)
[2] = target: Growth-associated protein 43 (GAP-43) WT, GFP fusion (murine) (UniProt P06837)
[3] = target: GAP-43 phosphoablative double mutant (S86A,T172A), GFP fusion (murine) (UniProt P06837); remark: listed apart in the source

Row | Molecule | binding [1] | binding [2] | binding [3]
1 | EEF1G (from UniProt P26641 1-437) | binds |  | 
2 | Elongation factor 1-alpha 1 (EEF1A1) (from UniProt P68104 1-462) | binds |  | 

Further lines, results first:

Row | binding [1] | binding [2] | binding [3] | Molecule
3 | binds | binds |  | nucleophosmin (NPM1) (from UniProt P06748 1-294)
4 | binds |  |  | Neuroblast differentiation-associated protein AHNAK (AHNAK) (from UniProt Q09666 1-5890)
5 |  |  | binds | PA2G4 (protein, UniProt Q9UQ80 1-394) MSGEDEQQEQTIAEDLVVTKYKMGGDIANRVLRSLVEASSSGVSVLSLCEKGDAMIMEETGKIFKKEKEMKKGIAFPTSISVNNCVCHFSPLKSDQDYILKEGDLVKIDLGVHVDGFIANVAHTFVVDVAQGTQVTGRKADVIKAAHLCAEAALRLVKPGNQNTQVTEAWNKVAHSFNCTPIEGMLSHQLKQHVIDGEKTIIQNPTDQQKKDHEKAEFEVHEVYAVDVLVSSGEGKAKDAGQRTTIYKRDPSKQYGLKMKTSRAFFSEVERRFDAMPFTLRAFEDEKKARMGVVECAKHELLQPFNVLYEKEGEFVAQFKFTVLLMPNGPMRITSGPFEPDLYKSEMEVQDAELKALLQSSASRKTQKKKKKKASKTAENATSGETLEENEAGD

Where two headings read alike, the source gives them in different places. Results are given in words; binding and its absence hold for the method and conditions named. In cells and extracts the contact can be indirect. These calls come from enrichment with a bait or labelling near it, and not all partners need be listed.
